The record followed here is ChEMBL document CHEMBL2046388, “Synthesis and biological evaluation of novel anticancer bivalent colchicine-tubulizine hybrids” (Bioorg Med Chem, 2012).

SMILES strings stand for the structures.

The test has as its system HBL-100. As to the kind of experiment: Antiproliferative activity against human HBL100 after 72 hrs by MTT assay. Format: functional, cell-based. The settings on record: HBL-100, 72 h.

As to `COc1cc2c(c(OC)c1OC)-c1ccc(OC)c(=O)cc1[C@@H](N)CC2` [DEACETYLCOLCHICINE], the IC50 – broadly, the midpoint of a concentration-inhibition curve – came out at 45 nM. This lies in the double-digit nanomolar range.
